These are yes or no findings as the source states them, for the method shown. In cells and extracts the contact can be indirect. Here binding means that the protein was enriched with, or labelled near, the bait; the list need not be complete. Sequences can lack the tags named with a protein.
Target: T1, Src-Like Adaptor Protein (SLAP)-Flag, overexpressed in CRC cells (UniProt Q60898)
T1 sequence: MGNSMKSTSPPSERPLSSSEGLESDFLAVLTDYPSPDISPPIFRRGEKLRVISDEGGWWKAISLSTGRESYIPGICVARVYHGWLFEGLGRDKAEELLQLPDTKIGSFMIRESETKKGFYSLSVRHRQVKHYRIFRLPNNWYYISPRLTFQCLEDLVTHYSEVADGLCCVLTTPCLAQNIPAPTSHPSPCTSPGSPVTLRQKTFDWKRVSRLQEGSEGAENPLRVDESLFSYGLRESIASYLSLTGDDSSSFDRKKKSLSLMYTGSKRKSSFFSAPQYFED
Assay: affinity purification with mass spectrometry; SILAC; SW620 cells overexpressing SLAP-Flag; CHAPS lysis buffer; heavy and light lysates (30 mg) mixed and immunoprecipitated with anti-Flag M2 agarose overnight at 4 °C

The chains behind the UniProt entries cited, without tags or fusion partners.
UniProt Q9Y4R8: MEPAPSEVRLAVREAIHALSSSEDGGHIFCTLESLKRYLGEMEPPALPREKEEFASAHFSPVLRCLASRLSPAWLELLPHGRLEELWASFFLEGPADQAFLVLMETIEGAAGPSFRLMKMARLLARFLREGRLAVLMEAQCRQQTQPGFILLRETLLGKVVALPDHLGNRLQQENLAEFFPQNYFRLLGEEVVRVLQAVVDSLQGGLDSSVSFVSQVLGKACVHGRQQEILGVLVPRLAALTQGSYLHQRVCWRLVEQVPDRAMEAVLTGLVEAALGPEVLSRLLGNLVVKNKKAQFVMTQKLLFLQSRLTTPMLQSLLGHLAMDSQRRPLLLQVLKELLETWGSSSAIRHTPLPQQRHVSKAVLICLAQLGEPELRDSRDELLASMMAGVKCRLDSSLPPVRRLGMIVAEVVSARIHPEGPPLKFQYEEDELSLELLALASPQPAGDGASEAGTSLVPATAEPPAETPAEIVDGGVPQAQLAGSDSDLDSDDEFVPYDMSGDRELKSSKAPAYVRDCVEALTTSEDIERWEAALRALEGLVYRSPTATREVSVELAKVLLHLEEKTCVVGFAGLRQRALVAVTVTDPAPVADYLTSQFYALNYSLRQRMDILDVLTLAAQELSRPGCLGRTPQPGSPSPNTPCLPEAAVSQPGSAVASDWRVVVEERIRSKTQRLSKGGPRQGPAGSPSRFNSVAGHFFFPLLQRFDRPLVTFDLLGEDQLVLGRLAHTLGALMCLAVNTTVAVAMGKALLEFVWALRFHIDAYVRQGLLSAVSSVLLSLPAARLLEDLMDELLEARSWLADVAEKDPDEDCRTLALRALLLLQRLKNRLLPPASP
UniProt Q15386: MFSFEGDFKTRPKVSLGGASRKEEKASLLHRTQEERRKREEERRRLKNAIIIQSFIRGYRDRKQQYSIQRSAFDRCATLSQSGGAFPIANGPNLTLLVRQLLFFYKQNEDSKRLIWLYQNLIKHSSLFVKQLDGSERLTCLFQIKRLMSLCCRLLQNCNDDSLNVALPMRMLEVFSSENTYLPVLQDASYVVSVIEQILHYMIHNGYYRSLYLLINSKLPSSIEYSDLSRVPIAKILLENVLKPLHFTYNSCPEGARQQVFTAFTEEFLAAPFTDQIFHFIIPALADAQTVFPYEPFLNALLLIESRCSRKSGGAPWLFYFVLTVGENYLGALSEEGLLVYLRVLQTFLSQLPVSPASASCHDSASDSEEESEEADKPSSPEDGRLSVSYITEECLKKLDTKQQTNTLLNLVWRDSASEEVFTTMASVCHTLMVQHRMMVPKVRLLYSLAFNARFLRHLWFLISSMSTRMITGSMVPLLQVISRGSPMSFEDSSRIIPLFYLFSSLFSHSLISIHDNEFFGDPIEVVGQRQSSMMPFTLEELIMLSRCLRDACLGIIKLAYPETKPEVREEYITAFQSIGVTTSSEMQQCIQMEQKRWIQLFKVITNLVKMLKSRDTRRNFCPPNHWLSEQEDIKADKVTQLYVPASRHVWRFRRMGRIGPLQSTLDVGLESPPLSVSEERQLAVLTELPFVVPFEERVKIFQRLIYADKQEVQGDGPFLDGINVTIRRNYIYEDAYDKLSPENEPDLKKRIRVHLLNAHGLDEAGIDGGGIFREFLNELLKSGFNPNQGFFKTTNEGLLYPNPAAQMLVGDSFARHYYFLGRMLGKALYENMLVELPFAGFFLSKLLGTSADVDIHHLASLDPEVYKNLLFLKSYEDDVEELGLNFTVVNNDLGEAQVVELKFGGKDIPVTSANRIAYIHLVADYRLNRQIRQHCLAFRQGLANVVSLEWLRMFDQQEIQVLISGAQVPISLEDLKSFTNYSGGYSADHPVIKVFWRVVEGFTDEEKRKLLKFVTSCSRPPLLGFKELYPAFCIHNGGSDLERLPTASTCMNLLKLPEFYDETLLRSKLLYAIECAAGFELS
UniProt O95071: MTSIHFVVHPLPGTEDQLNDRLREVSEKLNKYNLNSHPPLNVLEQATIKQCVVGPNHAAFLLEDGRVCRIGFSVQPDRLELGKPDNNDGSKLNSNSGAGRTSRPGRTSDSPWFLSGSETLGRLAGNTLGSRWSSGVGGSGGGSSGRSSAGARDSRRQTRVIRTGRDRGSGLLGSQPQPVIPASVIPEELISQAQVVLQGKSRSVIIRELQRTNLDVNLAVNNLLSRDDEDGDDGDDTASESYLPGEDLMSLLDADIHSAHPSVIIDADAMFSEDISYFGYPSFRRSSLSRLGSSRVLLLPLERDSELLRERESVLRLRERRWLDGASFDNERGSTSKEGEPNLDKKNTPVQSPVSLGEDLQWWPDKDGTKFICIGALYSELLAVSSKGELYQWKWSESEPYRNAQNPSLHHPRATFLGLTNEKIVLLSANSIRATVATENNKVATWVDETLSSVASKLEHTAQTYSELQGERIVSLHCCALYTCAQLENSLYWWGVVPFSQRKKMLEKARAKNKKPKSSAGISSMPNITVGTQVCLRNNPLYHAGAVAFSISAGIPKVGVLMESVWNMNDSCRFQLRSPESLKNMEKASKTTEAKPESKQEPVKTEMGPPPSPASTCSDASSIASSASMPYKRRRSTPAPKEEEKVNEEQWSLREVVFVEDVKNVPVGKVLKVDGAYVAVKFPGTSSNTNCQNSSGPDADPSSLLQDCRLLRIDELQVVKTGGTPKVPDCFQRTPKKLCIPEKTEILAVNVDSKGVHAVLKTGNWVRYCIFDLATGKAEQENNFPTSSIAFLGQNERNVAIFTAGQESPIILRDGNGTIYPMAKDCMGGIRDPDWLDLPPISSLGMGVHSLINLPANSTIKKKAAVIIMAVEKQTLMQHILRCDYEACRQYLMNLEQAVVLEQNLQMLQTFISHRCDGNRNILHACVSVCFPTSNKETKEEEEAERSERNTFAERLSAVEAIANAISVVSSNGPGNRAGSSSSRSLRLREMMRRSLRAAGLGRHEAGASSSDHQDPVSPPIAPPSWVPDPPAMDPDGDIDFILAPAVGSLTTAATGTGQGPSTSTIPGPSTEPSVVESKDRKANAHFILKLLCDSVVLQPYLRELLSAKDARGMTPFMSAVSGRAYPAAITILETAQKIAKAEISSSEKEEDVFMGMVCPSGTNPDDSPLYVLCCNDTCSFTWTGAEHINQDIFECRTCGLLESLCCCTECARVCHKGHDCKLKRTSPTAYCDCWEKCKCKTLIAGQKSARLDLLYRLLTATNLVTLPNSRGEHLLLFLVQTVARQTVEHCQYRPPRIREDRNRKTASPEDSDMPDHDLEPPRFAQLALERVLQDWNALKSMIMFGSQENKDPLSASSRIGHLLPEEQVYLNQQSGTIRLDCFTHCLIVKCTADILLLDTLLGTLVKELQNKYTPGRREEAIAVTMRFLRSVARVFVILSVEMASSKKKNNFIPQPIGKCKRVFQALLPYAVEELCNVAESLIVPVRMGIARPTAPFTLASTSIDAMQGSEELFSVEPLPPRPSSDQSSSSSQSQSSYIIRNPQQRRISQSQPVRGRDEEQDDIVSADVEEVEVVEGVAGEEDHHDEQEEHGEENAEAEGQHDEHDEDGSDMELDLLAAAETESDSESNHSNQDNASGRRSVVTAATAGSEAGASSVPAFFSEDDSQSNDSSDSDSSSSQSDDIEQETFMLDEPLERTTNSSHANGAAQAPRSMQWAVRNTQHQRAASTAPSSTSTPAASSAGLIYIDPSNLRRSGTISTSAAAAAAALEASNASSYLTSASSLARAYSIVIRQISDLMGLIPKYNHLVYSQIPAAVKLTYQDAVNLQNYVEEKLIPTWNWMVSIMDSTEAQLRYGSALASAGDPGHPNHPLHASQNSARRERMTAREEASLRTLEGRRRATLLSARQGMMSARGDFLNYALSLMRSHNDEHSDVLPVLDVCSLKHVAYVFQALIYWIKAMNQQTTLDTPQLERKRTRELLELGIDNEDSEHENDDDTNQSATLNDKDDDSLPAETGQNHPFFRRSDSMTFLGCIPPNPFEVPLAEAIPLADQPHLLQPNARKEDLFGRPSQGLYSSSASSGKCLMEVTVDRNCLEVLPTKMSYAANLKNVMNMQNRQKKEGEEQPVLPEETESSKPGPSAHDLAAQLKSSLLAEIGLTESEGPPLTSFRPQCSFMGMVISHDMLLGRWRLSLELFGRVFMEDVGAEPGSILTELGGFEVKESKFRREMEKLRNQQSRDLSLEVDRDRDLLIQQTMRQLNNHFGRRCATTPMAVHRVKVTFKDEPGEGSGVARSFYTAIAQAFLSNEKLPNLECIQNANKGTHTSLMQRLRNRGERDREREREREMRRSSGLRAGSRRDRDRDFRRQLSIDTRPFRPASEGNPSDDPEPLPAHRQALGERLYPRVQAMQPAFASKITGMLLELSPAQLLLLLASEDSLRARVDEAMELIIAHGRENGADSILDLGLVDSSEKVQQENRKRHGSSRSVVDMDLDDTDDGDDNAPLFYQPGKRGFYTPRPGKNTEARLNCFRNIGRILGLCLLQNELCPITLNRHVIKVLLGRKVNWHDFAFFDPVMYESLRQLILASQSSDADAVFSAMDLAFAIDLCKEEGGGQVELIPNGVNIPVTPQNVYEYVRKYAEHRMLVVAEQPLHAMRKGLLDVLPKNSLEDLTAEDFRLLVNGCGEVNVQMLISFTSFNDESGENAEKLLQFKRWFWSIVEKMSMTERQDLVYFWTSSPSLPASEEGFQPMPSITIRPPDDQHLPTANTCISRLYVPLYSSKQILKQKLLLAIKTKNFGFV
UniProt O94822: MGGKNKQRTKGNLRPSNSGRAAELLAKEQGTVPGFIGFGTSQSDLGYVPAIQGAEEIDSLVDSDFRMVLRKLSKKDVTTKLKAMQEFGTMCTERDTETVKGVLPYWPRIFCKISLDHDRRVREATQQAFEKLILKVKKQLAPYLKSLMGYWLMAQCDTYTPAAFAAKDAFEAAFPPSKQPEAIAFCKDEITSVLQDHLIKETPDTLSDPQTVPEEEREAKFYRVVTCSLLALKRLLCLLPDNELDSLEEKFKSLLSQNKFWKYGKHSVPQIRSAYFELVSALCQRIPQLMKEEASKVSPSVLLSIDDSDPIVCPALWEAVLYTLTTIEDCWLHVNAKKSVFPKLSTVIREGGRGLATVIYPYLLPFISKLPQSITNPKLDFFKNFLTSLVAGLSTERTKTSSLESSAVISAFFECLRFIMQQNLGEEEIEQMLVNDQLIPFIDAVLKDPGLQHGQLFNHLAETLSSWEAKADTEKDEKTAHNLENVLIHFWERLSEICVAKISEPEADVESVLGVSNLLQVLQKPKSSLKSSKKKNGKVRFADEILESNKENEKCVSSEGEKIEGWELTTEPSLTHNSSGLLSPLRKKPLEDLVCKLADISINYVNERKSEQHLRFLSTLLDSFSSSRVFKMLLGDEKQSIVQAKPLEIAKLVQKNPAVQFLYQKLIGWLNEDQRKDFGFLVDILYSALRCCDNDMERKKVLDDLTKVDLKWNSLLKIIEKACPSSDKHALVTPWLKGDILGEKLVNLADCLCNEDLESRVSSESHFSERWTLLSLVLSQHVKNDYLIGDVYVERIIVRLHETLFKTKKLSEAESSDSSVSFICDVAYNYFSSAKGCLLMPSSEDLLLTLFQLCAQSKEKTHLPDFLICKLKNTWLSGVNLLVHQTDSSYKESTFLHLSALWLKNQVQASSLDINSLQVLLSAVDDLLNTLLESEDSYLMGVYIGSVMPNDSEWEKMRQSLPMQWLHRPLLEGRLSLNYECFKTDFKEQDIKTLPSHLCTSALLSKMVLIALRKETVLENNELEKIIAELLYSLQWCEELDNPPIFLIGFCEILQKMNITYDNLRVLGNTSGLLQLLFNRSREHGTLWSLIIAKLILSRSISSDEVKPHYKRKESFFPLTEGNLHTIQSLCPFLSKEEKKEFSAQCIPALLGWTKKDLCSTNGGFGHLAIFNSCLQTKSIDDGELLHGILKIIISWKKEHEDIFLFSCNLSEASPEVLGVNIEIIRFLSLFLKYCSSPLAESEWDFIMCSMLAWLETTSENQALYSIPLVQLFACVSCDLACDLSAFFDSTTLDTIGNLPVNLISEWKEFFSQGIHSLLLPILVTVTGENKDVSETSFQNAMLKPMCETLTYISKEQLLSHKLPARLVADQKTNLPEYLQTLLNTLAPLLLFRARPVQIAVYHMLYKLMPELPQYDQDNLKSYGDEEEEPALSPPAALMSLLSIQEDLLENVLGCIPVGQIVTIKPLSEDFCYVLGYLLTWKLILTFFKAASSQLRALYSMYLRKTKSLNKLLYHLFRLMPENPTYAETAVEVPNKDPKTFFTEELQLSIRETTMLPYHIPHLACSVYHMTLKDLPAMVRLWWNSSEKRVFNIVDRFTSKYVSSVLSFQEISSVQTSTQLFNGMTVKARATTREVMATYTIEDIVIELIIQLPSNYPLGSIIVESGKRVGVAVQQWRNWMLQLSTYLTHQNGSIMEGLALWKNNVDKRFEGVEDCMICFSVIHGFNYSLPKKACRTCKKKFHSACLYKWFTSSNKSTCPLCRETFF

With “TELO2, endogenous in SW620 cells (from UniProt Q9Y4R8 1-837)” as the substance, how does the binding read?
Its binding is “binds”.

With “E3 ubiquitin ligase UBE3C, endogenous in CRC cells (from UniProt Q15386 1-1083) (enzyme)” as the substance, how does the binding read?
The binding was “binds”.

For “TRIM25, endogenous in SW620 cells (from UniProt Q14258 1-630) (enzyme)”, which binding is on record?
The binding was “binds”.

“TTI1, endogenous in SW620 cells (from UniProt O43156 1-1089)” was tested. Which binding did it give?
The binding was “binds”.

“UBR5, endogenous in SW620 cells (from UniProt O95071 1-2799) (enzyme)” was tested. Which binding did it give?
The binding was “binds”.

With “LTN1, endogenous in SW620 cells (from UniProt O94822 1-1766) (enzyme)” as the substance, how does the binding read?
The binding was “binds”.
